Holding throughout (test): affinity purification with mass spectrometry; GFP-Trap beads on clarified lysates of RPE1 WDR34 KO cells stably expressing GFP proteins, serum-starved 24 h; cells cross-linked with 1 mM DSP before lysis; 16-plex TMT labelling; abundances normalised to WDR34 (GFP only: to GFP) and compared with GFP–WDR34-WT; three independent experiments (PXD032758)
One assay addresses GFP–WDR34 p.A22V (human) (UniProt Q96EX3).
In assay [1] the target is GFP–WDR34 p.A341V (human) (UniProt Q96EX3).
Assay [2] has as its target GFP–WDR34 p.C148F (human) (UniProt Q96EX3).
Assay [3] concerns the target GFP–WDR34 p.G393S (human) (UniProt Q96EX3).
Assay [4] has as its target GFP–WDR34 p.K436R (human) (UniProt Q96EX3).
In assay [5] the target is GFP–WDR34 p.P390L (human) (UniProt Q96EX3).
For assay [6], the target named is GFP–WDR34 p.R182W (human) (UniProt Q96EX3).
The target of assay [7] is GFP–WDR34 p.R206C (human) (UniProt Q96EX3).
Assay [8] concerns the target GFP–WDR34 p.R447Q (human) (UniProt Q96EX3).
Assay [9] concerns the target GFP–WDR34 p.R447W (human) (UniProt Q96EX3).
Assay [10] has as its target GFP–WDR34 p.S410I (human) (UniProt Q96EX3).
Assay [11] deals with GFP–WDR34 p.T354M (human) (UniProt Q96EX3).
A further assay addresses GFP–WDR34-WT (human) (UniProt Q96EX3).
Assay [12] concerns the target GFP–WDR34-p.Q158* (human) (UniProt Q96EX3).

The chains behind the UniProt entries cited, without tags or fusion partners. Where a name states a change or a piece, a line headed by the entry shows the natural chain unless it says otherwise. Residues count along the entry.
UniProt Q96EX3: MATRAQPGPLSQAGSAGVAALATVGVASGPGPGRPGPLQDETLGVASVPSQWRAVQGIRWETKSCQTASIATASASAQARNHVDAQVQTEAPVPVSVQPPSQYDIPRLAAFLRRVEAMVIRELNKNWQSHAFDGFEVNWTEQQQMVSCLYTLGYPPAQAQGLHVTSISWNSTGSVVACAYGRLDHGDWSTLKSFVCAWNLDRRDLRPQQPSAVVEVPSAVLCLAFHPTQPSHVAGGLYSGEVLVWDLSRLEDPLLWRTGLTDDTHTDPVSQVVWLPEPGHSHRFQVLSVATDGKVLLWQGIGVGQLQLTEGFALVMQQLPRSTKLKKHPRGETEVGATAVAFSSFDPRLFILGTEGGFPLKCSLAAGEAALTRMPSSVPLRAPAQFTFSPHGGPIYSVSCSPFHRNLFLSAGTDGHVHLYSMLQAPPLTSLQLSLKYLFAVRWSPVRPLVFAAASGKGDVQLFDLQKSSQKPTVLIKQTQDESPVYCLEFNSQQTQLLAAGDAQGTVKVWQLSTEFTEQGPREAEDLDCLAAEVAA
GFP–WDR34-p.Q158*: residues 1-157 of Q96EX3
UniProt Q8WW35: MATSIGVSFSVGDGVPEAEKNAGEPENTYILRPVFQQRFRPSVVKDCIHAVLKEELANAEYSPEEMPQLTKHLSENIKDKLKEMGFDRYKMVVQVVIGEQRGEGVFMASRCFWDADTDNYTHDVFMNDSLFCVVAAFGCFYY
UniProt Q8TCX1: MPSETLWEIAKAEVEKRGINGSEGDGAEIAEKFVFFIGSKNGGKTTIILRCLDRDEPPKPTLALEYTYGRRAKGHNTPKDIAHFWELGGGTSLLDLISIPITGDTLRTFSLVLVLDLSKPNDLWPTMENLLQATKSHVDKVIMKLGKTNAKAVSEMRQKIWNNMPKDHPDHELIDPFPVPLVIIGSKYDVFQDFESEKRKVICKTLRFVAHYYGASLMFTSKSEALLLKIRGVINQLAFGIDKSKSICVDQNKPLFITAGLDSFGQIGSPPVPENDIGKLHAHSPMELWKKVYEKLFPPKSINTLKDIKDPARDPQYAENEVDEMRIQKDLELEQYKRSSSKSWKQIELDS
UniProt P63172: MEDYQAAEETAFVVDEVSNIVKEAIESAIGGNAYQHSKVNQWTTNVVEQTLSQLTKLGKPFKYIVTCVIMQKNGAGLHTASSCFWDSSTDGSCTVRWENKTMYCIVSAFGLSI
UniProt Q8TF09: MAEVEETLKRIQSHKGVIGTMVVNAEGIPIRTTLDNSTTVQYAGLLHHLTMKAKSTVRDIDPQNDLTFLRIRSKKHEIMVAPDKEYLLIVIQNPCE
UniProt Q8NCM8: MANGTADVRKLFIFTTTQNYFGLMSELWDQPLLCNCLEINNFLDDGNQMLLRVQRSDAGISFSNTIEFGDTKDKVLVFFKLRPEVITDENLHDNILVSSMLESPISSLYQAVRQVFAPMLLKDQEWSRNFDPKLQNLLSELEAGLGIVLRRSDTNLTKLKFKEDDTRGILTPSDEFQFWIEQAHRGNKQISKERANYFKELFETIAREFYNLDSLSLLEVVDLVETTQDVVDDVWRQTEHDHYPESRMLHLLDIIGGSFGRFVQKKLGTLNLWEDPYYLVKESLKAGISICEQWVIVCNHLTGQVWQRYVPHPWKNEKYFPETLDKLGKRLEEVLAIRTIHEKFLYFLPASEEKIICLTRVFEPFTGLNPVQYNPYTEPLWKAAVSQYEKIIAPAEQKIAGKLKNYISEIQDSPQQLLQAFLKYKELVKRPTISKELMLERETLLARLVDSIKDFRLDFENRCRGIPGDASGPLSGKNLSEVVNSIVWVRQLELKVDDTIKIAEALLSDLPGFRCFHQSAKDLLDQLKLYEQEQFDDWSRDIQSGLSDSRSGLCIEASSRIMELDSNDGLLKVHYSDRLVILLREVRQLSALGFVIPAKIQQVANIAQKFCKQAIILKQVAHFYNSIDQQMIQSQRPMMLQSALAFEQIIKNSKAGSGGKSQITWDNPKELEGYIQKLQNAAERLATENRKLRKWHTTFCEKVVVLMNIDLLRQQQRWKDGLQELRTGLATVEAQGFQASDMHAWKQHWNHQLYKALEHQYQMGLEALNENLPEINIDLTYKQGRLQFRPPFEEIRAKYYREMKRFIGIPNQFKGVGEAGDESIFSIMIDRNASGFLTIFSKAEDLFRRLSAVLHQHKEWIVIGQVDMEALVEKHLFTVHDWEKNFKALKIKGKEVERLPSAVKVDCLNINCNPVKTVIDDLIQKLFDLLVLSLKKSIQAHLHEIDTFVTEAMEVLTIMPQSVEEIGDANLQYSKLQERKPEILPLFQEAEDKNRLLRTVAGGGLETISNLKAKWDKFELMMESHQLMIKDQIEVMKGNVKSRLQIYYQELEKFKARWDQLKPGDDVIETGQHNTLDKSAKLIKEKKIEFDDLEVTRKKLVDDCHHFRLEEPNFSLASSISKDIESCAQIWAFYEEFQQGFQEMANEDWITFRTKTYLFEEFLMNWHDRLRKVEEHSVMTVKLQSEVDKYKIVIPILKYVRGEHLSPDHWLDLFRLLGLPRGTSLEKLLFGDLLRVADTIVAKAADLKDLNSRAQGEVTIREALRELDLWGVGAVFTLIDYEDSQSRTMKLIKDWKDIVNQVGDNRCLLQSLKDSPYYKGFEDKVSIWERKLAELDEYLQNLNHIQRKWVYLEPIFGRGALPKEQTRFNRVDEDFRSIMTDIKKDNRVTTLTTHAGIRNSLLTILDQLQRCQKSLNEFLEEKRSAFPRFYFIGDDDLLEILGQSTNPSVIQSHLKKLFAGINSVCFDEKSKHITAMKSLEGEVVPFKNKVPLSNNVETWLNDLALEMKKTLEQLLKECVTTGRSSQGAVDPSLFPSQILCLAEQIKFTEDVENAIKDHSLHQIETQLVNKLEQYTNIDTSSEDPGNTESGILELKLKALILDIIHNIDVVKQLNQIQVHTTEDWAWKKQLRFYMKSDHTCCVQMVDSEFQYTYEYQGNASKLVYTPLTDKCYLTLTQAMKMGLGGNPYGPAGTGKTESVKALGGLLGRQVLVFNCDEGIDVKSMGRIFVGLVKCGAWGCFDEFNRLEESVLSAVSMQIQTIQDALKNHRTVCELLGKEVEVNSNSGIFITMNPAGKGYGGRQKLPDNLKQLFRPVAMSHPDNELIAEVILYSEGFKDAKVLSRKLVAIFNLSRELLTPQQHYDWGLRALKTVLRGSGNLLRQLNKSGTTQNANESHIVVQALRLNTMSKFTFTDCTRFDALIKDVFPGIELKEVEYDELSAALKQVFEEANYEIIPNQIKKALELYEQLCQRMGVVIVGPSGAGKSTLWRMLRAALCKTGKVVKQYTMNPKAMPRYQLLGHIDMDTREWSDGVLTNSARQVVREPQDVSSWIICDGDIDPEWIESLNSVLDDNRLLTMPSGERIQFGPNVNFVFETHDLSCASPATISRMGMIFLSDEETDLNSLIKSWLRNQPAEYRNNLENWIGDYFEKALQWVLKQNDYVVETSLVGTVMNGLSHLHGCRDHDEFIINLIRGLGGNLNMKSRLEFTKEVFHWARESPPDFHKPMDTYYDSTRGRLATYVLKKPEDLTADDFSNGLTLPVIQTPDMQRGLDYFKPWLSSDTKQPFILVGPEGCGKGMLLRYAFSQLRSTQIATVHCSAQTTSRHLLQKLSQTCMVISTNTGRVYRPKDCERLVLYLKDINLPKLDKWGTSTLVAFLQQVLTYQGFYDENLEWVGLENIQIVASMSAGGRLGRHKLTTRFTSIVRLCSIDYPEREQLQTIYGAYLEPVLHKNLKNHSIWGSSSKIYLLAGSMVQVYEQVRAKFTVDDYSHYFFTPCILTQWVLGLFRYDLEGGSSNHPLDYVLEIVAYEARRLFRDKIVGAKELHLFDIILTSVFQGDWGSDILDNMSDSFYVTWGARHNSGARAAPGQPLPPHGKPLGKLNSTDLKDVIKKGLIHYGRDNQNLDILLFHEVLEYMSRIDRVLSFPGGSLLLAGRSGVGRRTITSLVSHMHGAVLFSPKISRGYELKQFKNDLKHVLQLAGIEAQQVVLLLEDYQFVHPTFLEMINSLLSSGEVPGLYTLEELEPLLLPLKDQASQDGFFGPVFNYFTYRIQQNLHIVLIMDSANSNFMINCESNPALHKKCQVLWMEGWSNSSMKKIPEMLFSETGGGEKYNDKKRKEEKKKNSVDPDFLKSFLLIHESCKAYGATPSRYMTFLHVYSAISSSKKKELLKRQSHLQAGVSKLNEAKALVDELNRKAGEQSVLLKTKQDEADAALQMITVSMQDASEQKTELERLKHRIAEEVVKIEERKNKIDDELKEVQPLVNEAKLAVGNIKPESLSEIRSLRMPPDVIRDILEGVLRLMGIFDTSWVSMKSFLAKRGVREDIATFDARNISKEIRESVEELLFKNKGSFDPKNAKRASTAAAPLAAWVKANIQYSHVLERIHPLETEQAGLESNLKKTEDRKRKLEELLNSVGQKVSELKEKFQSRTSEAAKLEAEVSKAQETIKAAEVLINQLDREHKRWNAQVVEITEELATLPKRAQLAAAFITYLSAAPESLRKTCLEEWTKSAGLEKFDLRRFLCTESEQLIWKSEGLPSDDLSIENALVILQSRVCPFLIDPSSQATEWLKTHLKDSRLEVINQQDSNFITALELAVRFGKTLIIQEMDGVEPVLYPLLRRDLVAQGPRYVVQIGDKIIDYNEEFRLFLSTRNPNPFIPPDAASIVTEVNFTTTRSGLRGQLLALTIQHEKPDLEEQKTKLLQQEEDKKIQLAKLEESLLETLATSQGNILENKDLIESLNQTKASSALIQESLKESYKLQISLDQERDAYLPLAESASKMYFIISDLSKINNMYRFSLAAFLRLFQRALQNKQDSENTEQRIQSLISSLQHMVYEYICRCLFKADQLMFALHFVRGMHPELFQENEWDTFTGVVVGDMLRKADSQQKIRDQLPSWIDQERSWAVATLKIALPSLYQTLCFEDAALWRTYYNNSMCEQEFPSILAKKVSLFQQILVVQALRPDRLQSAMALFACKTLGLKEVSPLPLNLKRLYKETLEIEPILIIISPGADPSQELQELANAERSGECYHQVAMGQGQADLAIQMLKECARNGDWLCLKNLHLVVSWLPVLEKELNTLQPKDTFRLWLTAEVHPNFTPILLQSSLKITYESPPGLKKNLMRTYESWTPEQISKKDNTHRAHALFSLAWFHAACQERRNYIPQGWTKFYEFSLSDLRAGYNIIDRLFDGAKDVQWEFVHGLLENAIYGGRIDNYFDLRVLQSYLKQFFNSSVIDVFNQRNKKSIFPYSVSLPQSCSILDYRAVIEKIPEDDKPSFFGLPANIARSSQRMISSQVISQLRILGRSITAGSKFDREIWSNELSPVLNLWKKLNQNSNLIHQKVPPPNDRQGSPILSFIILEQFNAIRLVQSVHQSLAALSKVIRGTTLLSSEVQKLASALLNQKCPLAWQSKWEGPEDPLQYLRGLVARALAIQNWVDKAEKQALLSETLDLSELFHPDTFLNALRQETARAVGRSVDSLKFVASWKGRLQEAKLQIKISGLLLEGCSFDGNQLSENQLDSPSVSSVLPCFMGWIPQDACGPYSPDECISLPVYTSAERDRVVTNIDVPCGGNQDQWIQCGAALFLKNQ
UniProt P51808: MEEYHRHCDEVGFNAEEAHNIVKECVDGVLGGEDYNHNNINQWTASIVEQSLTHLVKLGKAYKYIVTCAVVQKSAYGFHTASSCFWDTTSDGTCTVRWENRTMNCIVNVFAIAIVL
UniProt Q9NP97: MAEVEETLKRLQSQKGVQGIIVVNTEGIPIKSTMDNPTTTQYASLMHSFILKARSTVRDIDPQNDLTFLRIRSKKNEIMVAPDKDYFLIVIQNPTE

No constants are given. Whether binding was seen depends on the method and setting. In cells and extracts the contact can be indirect. These calls come from enrichment with a bait or labelling near it, and not all partners need be listed. For some assays here: No binding means not detected with the bait.

Regarding DYNLT2B (from UniProt Q8WW35 1-142), the binding entry (with GFP–WDR34 p.A22V (human); in [1]; in assay [2]; in assay [3]; in [4]; in [5]) was “binds” each time. Further, the binding entry in assay [6], in assay [7], in assay [8], in assay [9], in assay [10] and in assay [11] was “binds” each time. In addition, the binding result (with GFP–WDR34-WT (human); in assay [12]) was “binds” throughout.

Consider LIC3 (from UniProt Q8TCX1 1-351), for which the binding result (in the assay with GFP–WDR34 p.A22V (human); in assay [1]; in assay [2]; in [3]; in assay [4]; in assay [5]) was “binds” each time. Besides, the binding result in [6], in assay [7], in assay [8], in assay [9], in [10] and in assay [11] was “binds” throughout. In addition, the binding result (with GFP–WDR34-WT (human); in assay [12]) was “binds” throughout.

As to DYNLT1 (from UniProt P63172 1-113), the binding entry (in the assay with GFP–WDR34 p.A22V (human); in [1]; in assay [2]; in assay [3]; in assay [4]; in assay [5]) was “binds” in each case. The binding result in assay [6], in assay [7], in [8], in assay [9], in assay [10] and in assay [11] was “binds” in each case. Also, the binding result (with GFP–WDR34-WT (human); in assay [12]) was “binds” in each case.

On to DYNLRB2 (from UniProt Q8TF09 1-96), for which the binding result (in the assay with GFP–WDR34 p.A22V (human); in [1]; in assay [2]; in assay [3]; in [4]; in [5]) was “no binding” each time. For the same substance, the binding result in assay [6], in assay [7], in assay [8], in assay [9], in [10] and in assay [11] was “no binding” throughout. Besides, the binding result in assay [12] is on record as “no binding”.

As to DYNC2H1 (from UniProt Q8NCM8 1-4307), the binding result (with GFP–WDR34 p.A22V (human); in assay [1]; in [2]; in assay [3]; in [4]; in assay [5]) was “binds” in each case. Further, the binding entry in assay [6], in assay [7], in assay [8], in assay [9], in assay [10] and in assay [11] was “binds” throughout. Moreover, the binding result (in the assay with GFP–WDR34-WT (human); in assay [12]) was “binds” throughout.

DYNLT3 (from UniProt P51808 1-116): the binding result (in the assay with GFP–WDR34 p.A22V (human); in assay [1]; in assay [2]; in assay [3]; in assay [4]; in [5]) was “no binding” in each case. Further, the binding entry in [6], in assay [7], in [8], in assay [9], in assay [10] and in [11] was “no binding” in each case. In addition, the binding entry in [12] is “no binding”.

With DYNLRB1 (from UniProt Q9NP97 1-96), the binding result (with GFP–WDR34 p.A22V (human); in [1]; in assay [2]; in assay [3]; in assay [4]; in assay [5]) was “binds” in each case. Also, the binding result in assay [6], in assay [7], in [8], in [9], in assay [10] and in assay [11] was “binds” in each case. In addition, the binding result (in the assay with GFP–WDR34-WT (human); in assay [12]) was “binds” each time.

For WDR60 (from UniProt Q8WVS4 1-1066), the binding entry (with GFP–WDR34 p.A22V (human); in assay [1]; in assay [2]; in assay [3]; in assay [4]; in assay [5]) was “binds” throughout. The binding entry in [6], in [7], in [8], in assay [9], in [10] and in assay [11] was “binds” each time. Moreover, the binding result (with GFP–WDR34-WT (human); in [12]) was “binds” throughout.
